Source: PubChem BioAssay AID1259254 (NCATS, 2017)

Purpose: 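Gene knock-downs that lead to re-replication, shown by excess G2 DNA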 (primary screen)
Cell system: human HCT116 colorectal cancer cells
Reagent: single siRNA against human genes
Duration: 3 days
Measured: 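Nuclei stained with Hoechst and imaged; cell-cycle phase assigned by DNA content; G2 share scaled per plate, non-targeting siRNA 0%, GMNN siRNA 100%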
Direction: G2 robust z-score: higher = more G2 cells, more excess DNA replication
Call rule: 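An siRNA counts as active if its G2 robust z-score lies at least 5 MADs above the screen median; here such calls match roughly 38% of GMNN control or more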
Shown is an unselected part of about 59,000 deposited reagents. About 1,550 of all reagents (2.6%) were called active. 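G2 share is only a proxy for re-replication; each gene was hit by three separate siRNAs, and active genes were retested.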 The numbers tell different reagents against one gene apart. Not all columns of the deposit are shown. The record does not give: the amount of reagent.

DEFB119 (defensin beta 119) #1 — G2 robust z-score = -0.23; outcome = inactive
DEFB119 (defensin beta 119) #2 — G2 robust z-score = -0.596; outcome = inactive
DEFB119 (defensin beta 119) #3 — G2 robust z-score = -0.761; outcome = inactive
MYL11 (myosin light chain 11) #1 — G2 robust z-score = -0.113; outcome = inactive
MYL11 (myosin light chain 11) #2 — G2 robust z-score = -1.23; outcome = inactive
MYL11 (myosin light chain 11) #3 — G2 robust z-score = 0.451; outcome = inactive
RSPH6A (radial spoke head 6 homolog A) #1 — G2 robust z-score = 1.09; outcome = inactive
RSPH6A (radial spoke head 6 homolog A) #2 — G2 robust z-score = -0.0878; outcome = inactive
RSPH6A (radial spoke head 6 homolog A) #3 — G2 robust z-score = 0.444; outcome = inactive
ZNF600 (zinc finger protein 600) #1 — G2 robust z-score = 0.635; outcome = inactive
ZNF600 (zinc finger protein 600) #2 — G2 robust z-score = 0.36; outcome = inactive
ZNF600 (zinc finger protein 600) #3 — G2 robust z-score = 0.883; outcome = inactive
BFAR (bifunctional apoptosis regulator) #1 — G2 robust z-score = 2.3; outcome = inactive
BFAR (bifunctional apoptosis regulator) #2 — G2 robust z-score = 2.66; outcome = inactive
BFAR (bifunctional apoptosis regulator) #3 — G2 robust z-score = -0.735; outcome = inactive
SERPINE3 (serpin family E member 3) #1 — G2 robust z-score = 0.547; outcome = inactive
SERPINE3 (serpin family E member 3) #2 — G2 robust z-score = 0.714; outcome = inactive
SERPINE3 (serpin family E member 3) #3 — G2 robust z-score = -0.761; outcome = inactive
ADRA1A (adrenoceptor alpha 1A) #1 — G2 robust z-score = 0.0776; outcome = inactive
ADRA1A (adrenoceptor alpha 1A) #2 — G2 robust z-score = -0.878; outcome = inactive
ADRA1A (adrenoceptor alpha 1A) #3 — G2 robust z-score = -0.389; outcome = inactive
OR4D11 (olfactory receptor family 4 subfamily D member 11) #1 — G2 robust z-score = 2.63; outcome = inactive
OR4D11 (olfactory receptor family 4 subfamily D member 11) #2 — G2 robust z-score = 3.44; outcome = inactive
OR4D11 (olfactory receptor family 4 subfamily D member 11) #3 — G2 robust z-score = -0.275; outcome = inactive

2 entries already listed, ordered by “G2 robust z-score”, high to low.
DEFB119 (defensin beta 119) #2 — G2 robust z-score = -0.596; outcome = inactive
DEFB119 (defensin beta 119) #3 — G2 robust z-score = -0.761; outcome = inactive
